Assay results: PubChem BioAssay AID1347426 (Functional Genomics Laboratory (NCATS/FGL), 2020)
The campaign covered roughly 31,000 sequences. About 1,400 (4.5%) were called active.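 The calls were made as follows: active = median seed-adjusted z-score above 1 or below -1; inactive = the rest.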 Some of the results follow.

Test: Novel Modifiers of Survival Motor Neuron (SMN) Protein: Gene Identification via Genome-wide siRNA Screen;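 also: luminescence tracks full-length SMN protein made from the SMN2 reporter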
Conditions: HEK293T SMN2-luciferase reporter, siRNA knockdown, 72 h; actives lie on both sides
In short: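 siRNA screen, 10418 genes ×3 siRNAs; 1 pmol/well, lipid reverse transfection into HEK293T SMN2-luc reporter line. 72 h, 37 °C, 5% CO2; ONE-Glo readout. Data: neg-ctrl normalized, log10, MAD; hit = MAD >1.0 or < -1.0.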

Row | Sequence | median seed-adjusted z-score
1 | GGUAGUAUAUGUCUGGACATT against UBE2A | inactive: 0.306
2 | GAAUAUAAGUGGGAGAACATT against CD2BP2 | inactive: -0.455
3 | CGUGGGUAAUGAUGCGGAATT against TOM1 | inactive: 0.774
4 | GCAUGCAGAUGUUCGGCAATT against CACNA1F | inactive: 0.22
5 | GGUCGAAGUUGAGUAUGAATT against ADSSL1 | inactive: 0.0976
6 | CAACUUCCCUGAUCUCAAUTT against CPN1 | inactive: 0.17
7 | GCUAUAACCUCCAACCUGATT against RGL2 | inactive: 0.174
8 | GACAUAUAAUGACAUAGAUTT against TRAK1 | inactive: 0.298
9 | GCGUUGCAAUUAUAAGGUATT against HTR2C | inactive: -0.115
10 | GACUCAUGUUUGUAAACGATT against MPDZ | inactive: -0.398
11 | GAGCAGUAAGACUAACGAATT against ANKIB1 | inactive: -0.00367
12 | CCGGAGAUCUUAAUAGGAATT against ECHS1 | inactive: 0.0273
13 | GCAUGUCUCUGACACCUCATT against KRT5 | inactive: -0.325
14 | CCACCUUGCUCAACUAUGATT against AOC3 | inactive: -0.474
15 | GCCUCCAAAGGUUACAUUUTT against UBE2E1 | inactive: 0.888
16 | GCUGCAAGAAUCUACUAUATT against HEPH | inactive: -0.293
17 | CAUCGAAAAGGUCUCCUUUTT against NUMBL | inactive: -0.139
18 | AGAGGAUUCAUUUCUUCUATT against ACER1 | inactive: 0.308
19 | GCUACGUCCUUUACCCGAATT against HEXA | inactive: -0.551
20 | CAUUCGCUCUGGUACUUAUTT against CRYZ | inactive: -0.809
21 | GAACGGGUAUGUGGAGAUATT against INHBA | inactive: 0.361
22 | CCAUCAAUGGAGAUCCGGATT against ADAMTS4 | inactive: -0.0153
23 | CGAGAGCAACUACCUCUUUTT against PPP1CA | inactive: 0.115
24 | CGGGAACUCUAAUCCUUGATT against AKAP5 | inactive: 0.0592
25 | GCCCAUCGCUCGAAAAAGATT against SLC39A3 | inactive: 0.0298
26 | GUUCCUCAGGAGUACCUUCTT against CSHL1 | inactive: -0.54
27 | GGAUCAAGAUAUUCAAGUATT against PKD2L1 | inactive: 0.445

Row | Sequence | median seed-adjusted z-score
28 | AGUACAACUUCAUCGCAGATT against HTRA2 | inactive: -0.503
29 | CCACUCCAUUAAGAGGCUATT against ATP6V1F | inactive: -0.428
30 | GCAGGUGUCUAGUAGUUCUTT against RFWD3 | inactive: 0.554
31 | GGAUGUACAUGUGGUCGAATT against ITGA8 | inactive: -0.215
32 | AGGUGCUCCUGAUGAAAGATT against RBMXL2 | inactive: -0.387
33 | ACUUCUUCGUUUGUCCUCATT against FOSB | inactive: 0.266
34 | GGAUACGAGUGGUGGUUGATT against GALC | inactive: 0
35 | GACGGAUUCAAGUACCUUUTT against AMFR | inactive: -0.15
36 | GCCUGAAGGUUCUAAAGAATT against SIRT7 | inactive: -0.427
37 | GUGAGAAAUUUGAACGGUUTT against PIK3CD | inactive: 0.00831
38 | CGAGAUAUAAGUUCGAAGATT against ZP2 | inactive: 0.0455
39 | AGCGCGACCUUAUCUCCAATT against CD74 | inactive: 0.0748
40 | GCACCUACCUUAGAAAACATT against SSX2 | inactive: -0.583
41 | CCACCACAGAUUUUCCUAUTT against CD300A | inactive: -0.414
42 | GCAAAUCCACGUUAAUGGATT against 11-Sep | inactive: -0.245
43 | GGUUCAUCAUCUACACUUUTT against SSTR2 | inactive: -0.162
44 | GCAGAGAAAUCUUCCGGAATT against POLR1C | inactive: -0.0299
45 | UCAGAGCAGUUUACAGCAATT against TUBB4Q | inactive: -0.0288
46 | AGACCGAGGUGGACUGUAATT against FSTL1 | inactive: 0.503
47 | GCUUGCAGCUUUUUAAAGATT against PIGC | inactive: -0.3
48 | GGUACUUGAUAGCCUCUUATT against HMGN1 | inactive: -0.183
49 | GGUGGUGAAUUAUGACCAATT against MYLK2 | inactive: -0.0498
50 | GCAUCUACGUCAUGGGCUUTT against PSAT1 | inactive: -0.706
51 | ACGGCCGAGUGAUCCCUUUTT against DNAJB5 | inactive: -0.444
52 | UCUCGUCCGUGGUAGCUGATT against E4F1 | inactive: 0.698
53 | GCAAGUUUCUACUGAGUCATT against KLHL17 | inactive: 0.139
54 | GUGACUUUGUUAUCCAGAATT against PCDH1 | inactive: -0.514

Retrieved one by one from the entries so far (4):
Row | Sequence | median seed-adjusted z-score
36 | GCCUGAAGGUUCUAAAGAATT against SIRT7 | inactive: -0.427
44 | GCAGAGAAAUCUUCCGGAATT against POLR1C | inactive: -0.0299
30 | GCAGGUGUCUAGUAGUUCUTT against RFWD3 | inactive: 0.554
40 | GCACCUACCUUAGAAAACATT against SSX2 | inactive: -0.583
